# Data taken from PubChem BioAssay AID662 (National Center for Advancing Translational Sciences (NCATS), 2007).
# The other results are listed elsewhere or left out. Further columns of the screen follow, without active or inactive calls. The list favours compounds with an active or inconclusive main result. Potencies come from curve fits of mixed quality, noted in brackets.
# Test: Cell signaling CRE-BLA (Fsk stim)
# Conditions: CHO CRE-bla reporter (cAMP response element driving beta-lactamase), forskolin EC10, beta-lactamase ratio; measured here: 460 nm blue channel
# Method in brief: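 Cells were plated overnight at 37 °C, exposed to compound titrations plus EC10 NKH 477 for 3 h, then given CCF4 dye for 2 h at room temperature. Blue/green (460/530 nm) ratio was converted to %Activity and AC50 values calculated.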
row,Compound,AC50
1,COc1ccc(CNc2nc3c(c(C(F)(F)F)n2)CCCCC3)cc1,"0.316 µM [falling, partial curve]"
2,CCNS(=O)(=O)c1ccc(OCCNS(C)(=O)=O)cc1,"25.1 µM [rising, single point]"
3,O=C(O)CSC(NC(=O)c1cccnc1)(C(F)(F)F)C(F)(F)F,"0.0398 µM [falling, full curve]"
4,CCOC(=O)c1c(C)[nH]c(C)c1C(=O)CSc1nnc(-c2ccco2)n1Cc1ccccc1,"12.6 µM [rising, partial curve]"
5,CCCc1c(OCCCOc2ccc(OCC(=O)O)cc2)ccc(C(C)=O)c1O,"5.01 µM [rising, partial curve]"
6,Cc1ccc(S(=O)(=O)c2c(N)n(CC3CCOC3)c3nc4ccccc4nc23)cc1 (stereo unspecified),"10 µM [rising, partial curve]"
7,c1ccc(N2CCN(c3nc4cc5c(cc4s3)OCCO5)CC2)cc1,"25.1 µM [rising, single point]"
8,Cc1ccc(-n2nc(C)c3c(-c4cccs4)c(C#N)c(N)nc32)cc1,"10 µM [rising, partial curve]"
9,Cc1cc(NC(=O)CSc2nc3c([nH]c4ccccc43)c(=O)n2-c2cccc(C(F)(F)F)c2)no1,"1 µM [rising, full curve]"
10,CCCn1c(C)nc2c(NC3CCCCC3)nc(C)nc21,"12.6 µM [rising, partial curve]"
11,Cc1cccc(C)c1NC(=O)C[N+](C)(C)C,"31.6 µM [falling, single point]"
12,CCCOC(=O)CSc1nnc(-c2cc(OC)c(OC)c(OC)c2)o1,"15.8 µM [rising, single point]"
13,COc1ccc(S(=O)(=O)N2CCCCCC2)cc1C(=O)OCc1c(C)noc1C,"10 µM [rising, partial curve]"
14,O=c1c2cc(Cl)ccc2[nH]c(=S)n1Cc1ccco1,"12.6 µM [rising, partial curve]"
15,CCCC(=O)Nc1cc(C)c2c(=O)oc3ccccc3c2n1,"12.6 µM [falling, single point]"
16,Cc1cc(C)c2c(c1)cc(C)c1nnc(SCC(=O)Nc3cc(C)on3)n12,"10 µM [rising, partial curve]"
17,CC(C)OCCCn1c(-c2ccco2)nc2nc3ccccc3nc21,"12.6 µM [rising, partial curve]"
18,O=C(NCc1ccc2c(c1)OCO2)c1cccc(S(=O)(=O)N2CCOCC2)c1,"20 µM [rising, single point]"
19,CCCCC(c1nnnn1CS(=O)(=O)c1ccc(C)cc1)N1CCN(c2ccccc2)CC1 (stereo unspecified),"12.6 µM [falling, partial curve]"
20,N=c1c2c(-c3ccccc3)c(-c3ccccc3)oc2ncn1CCCN1CCOCC1,"25.1 µM [rising, single point]"
21,COc1ccc(-n2c(N)c(C(=O)NCC3CCCO3)c3nc4ccccc4nc32)c(OC)c1 (stereo unspecified),"20 µM [rising, partial curve]"
22,O=C(CSc1ncc(-c2ccc(F)cc2)n1Cc1ccco1)Nc1nccs1,"20 µM [rising, single point]"

# 4 records drawn at random from those above, as already listed:
row,Compound,AC50
19,CCCCC(c1nnnn1CS(=O)(=O)c1ccc(C)cc1)N1CCN(c2ccccc2)CC1 (stereo unspecified),"12.6 µM [falling, partial curve]"
18,O=C(NCc1ccc2c(c1)OCO2)c1cccc(S(=O)(=O)N2CCOCC2)c1,"20 µM [rising, single point]"
4,CCOC(=O)c1c(C)[nH]c(C)c1C(=O)CSc1nnc(-c2ccco2)n1Cc1ccccc1,"12.6 µM [rising, partial curve]"
13,COc1ccc(S(=O)(=O)N2CCCCCC2)cc1C(=O)OCc1c(C)noc1C,"10 µM [rising, partial curve]"

# Next records follow.

row,Compound,AC50
1,CCN1CCC2(CC1)C(C#N)=C(N)Oc1c2sc2nc(C)cc(C)c12,"5.01 µM [falling, single point]"
2,CN1CCN(c2nc(-c3ccncc3)nc3ccccc23)CC1,"0.00398 µM [falling, partial curve, poor fit]"
3,CC1(C)CC(=O)C(C(c2ccncc2)C2C(=O)CC(C)(C)CC2=O)C(=O)C1,"0.251 µM [falling, full curve, poor fit]"
4,Cn1c(=O)[nH]c(=O)c2c1nc(CN1CCN(c3cccc(Cl)c3)CC1)n2CCCc1ccccc1,"3.98 µM [rising, full curve]"
5,O=C(NCCCN1CCCC1=O)c1ccc2c(c1)NC(=O)C(N1CCOCC1)S2 (stereo unspecified),"1.26 µM [falling, full curve, poor fit]"
6,COc1cc(C(=O)OCC(=O)c2cc(C)n(C)c2C)cc(NC(=O)c2ccco2)c1OC,"7.94 µM [rising, partial curve]"
7,COc1ccc2[nH]c3nc(SCc4nnc(-c5ccc(C)cc5)o4)nnc3c2c1,"1 µM [rising, full curve]"
8,Cc1ccc(CNC(=O)CN2CCN(Cc3ccc(C)cc3)C2=O)cc1,"5.01 µM [falling, single point]"
9,CCCS(=O)(=O)c1nnnn1-c1cccc(OC)c1,"12.6 µM [falling, partial curve, poor fit]"
10,CCC/C=C(\CCC)C(NC(=O)c1ccc(C(F)(F)F)cc1)c1ccc(C(F)(F)F)cc1 (stereo unspecified),"0.316 µM [rising, full curve]"
11,CCOCCN1CCN(c2c(C)c(C)nc3cc(-c4cc(OC)cc(OC)c4)nn23)CC1,"3.98 µM [rising, full curve]"
12,COCc1c(C(=O)OCC(=O)N2c3ccccc3CC2C)oc2ccccc12 (stereo unspecified),"10 µM [rising, single point]"
13,CCOC(=O)c1[nH]c(C)c(C(=O)c2cc(F)ccc2F)c1C,"12.6 µM [rising, partial curve]"
14,COCCn1c(=O)c(-c2cccc(C#N)c2)nc2cnc(Oc3ccc(OC)cc3)nc21,"25.1 µM [rising, partial curve]"
15,C=C[C@@](C)(O)CC[C@H]1[C@]2(C)CCCC(C)(C)[C@H]2CC[C@]1(C)O,"0.398 µM [falling, full curve, poor fit]"
16,COc1ccc(CCNS(=O)(=O)c2ccc(C3CNC(=O)C3)cc2)cc1OC (stereo unspecified),"12.6 µM [rising, partial curve]"
17,COC(=O)[C@@]1(Cc2ccc(OC)cc2)[C@H]2c3cc(C(=O)N4CCCC4)n(CCn4cc([N+](=O)[O-])nc4C)c3C[C@H]2CN1C(=O)c1ccccc1,"3.98 µM [rising, partial curve]"
18,COc1ccc(-c2cc3ccc(OCc4nn[nH]n4)cc3oc2=O)cc1,"15.8 µM [rising, single point]"
19,CCOC(=O)CSc1ccc2nnc(-c3cccs3)n2n1,"5.01 µM [rising, partial curve]"
20,Cc1cc(NC(=O)CSc2nc3ccccc3n2CC(=O)N2CCCCC2)no1,"25.1 µM [rising, single point]"
21,CCOC(=O)CCn1c(=O)c2c(nc(Br)n2Cc2ccccc2)n(C)c1=O,"15.8 µM [rising, single point]"
22,CCOC(=O)c1ccc(NC(=O)CCc2nc(-c3ccccc3)no2)cc1,"31.6 µM [falling, single point]"

row,Compound,AC50
1,Fc1ccccc1CSc1nnc(-c2ccccc2)o1,"15.8 µM [rising, partial curve, poor fit]"
2,CC[C@@H]1Cc2cc(O)ccc2C2=C1c1ccc(O)cc1C[C@H]2CC,"12.6 µM [falling, partial curve]"
3,CC(=O)Nc1nc2ccc(Br)cc2s1,"10 µM [falling, single point]"
4,O=C(COc1ccccc1)Nc1ccc2c(c1)nc1n2CCSC1,"0.631 µM [rising, full curve]"
5,CCOC(=O)C1CCN(CC(=O)c2c(C)[nH]c3ccccc23)CC1,"3.16 µM [falling, full curve]"
6,Cc1cc(NC(=O)CSC2=Nc3ccccc3C3=NC(Cc4ccccc4)C(=O)N23)n[nH]1 (stereo unspecified),"1 µM [rising, full curve]"
7,CCCn1c2ccccc2c2nnc(SCC(=O)OC)nc21,"3.98 µM [rising, partial curve]"
8,COc1cc(NC(=O)Cn2c(-c3cncs3)nc3ccccc32)cc(OC)c1OC,"10 µM [rising, partial curve]"
9,Cc1ccc(-n2c(N)c(-c3nc4ccccc4n3C)sc2=S)cc1,"5.01 µM [rising, single point]"
10,Cc1nn2c(N3CCN(c4ccccn4)CC3)cc(C(C)C)nc2c1-c1ccccc1,"2 µM [rising, partial curve]"
11,CCC(=O)Oc1ccc2c(C)c(Cl)c(=O)oc2c1,"12.6 µM [rising, partial curve]"
12,O=CN(Cc1ccco1)C1(C(=O)NC2CCCCC2)CCCCC1,"0.00316 µM [falling, full curve, poor fit]"
13,Cn1c(=O)c2c(nc(CN3CCN(c4ccc(F)cc4)CC3)n2CCN2CCOCC2)n(C)c1=O,"20 µM [rising, single point]"
14,Cc1noc(C)c1-c1nc(N2CCNCC2)c2ccccc2n1,"12.6 µM [rising, partial curve]"
15,CCCCCCn1c(SCC(=O)c2ccccc2)nc2c1c(=O)[nH]c(=O)n2C,"3.16 µM [rising, full curve]"
16,Cn1c(=O)c2c(nc(OCC3COC(C)(C)O3)n2Cc2ccccc2F)n(C)c1=O (stereo unspecified),"10 µM [rising, single point]"
17,CN(Cc1ccco1)c1cc(-c2ccoc2)ncn1,"5.01 µM [rising, single point]"
18,O=C(NCCC1=CCCCC1)C1CCN(S(=O)(=O)c2ccc(-n3cnnn3)cc2)CC1,"0.1 µM [falling, full curve, poor fit]"
19,OC(CNCCc1ccccc1)c1ccccc1 (stereo unspecified),"0.00631 µM [falling, full curve, poor fit]"
20,COc1cc(C(=O)Nc2ccncc2)cc(OC)c1OC,"15.8 µM [rising, single point]"
21,CCSc1nc(N2CCOCC2)c2c(c1C#N)CCCC2,"7.94 µM [falling, partial curve]"
22,CC1=C(C(=O)NCc2ccccc2)C(c2cccnc2)n2ncnc2N1 (stereo unspecified),"25.1 µM [rising, single point]"
